Assay results reported in article PMC9372748.
No constants are given. Whether binding was seen depends on the method and setting. Binding seen in cells or lysates may run through a third protein. Some entries that bind do so weakly or less than the wild type.

By UniProt entry, the sequences of proteins in these tests, tags left out. Where a name states a change or a piece, a line headed by the entry shows the natural chain unless it says otherwise.
UniProt P35637: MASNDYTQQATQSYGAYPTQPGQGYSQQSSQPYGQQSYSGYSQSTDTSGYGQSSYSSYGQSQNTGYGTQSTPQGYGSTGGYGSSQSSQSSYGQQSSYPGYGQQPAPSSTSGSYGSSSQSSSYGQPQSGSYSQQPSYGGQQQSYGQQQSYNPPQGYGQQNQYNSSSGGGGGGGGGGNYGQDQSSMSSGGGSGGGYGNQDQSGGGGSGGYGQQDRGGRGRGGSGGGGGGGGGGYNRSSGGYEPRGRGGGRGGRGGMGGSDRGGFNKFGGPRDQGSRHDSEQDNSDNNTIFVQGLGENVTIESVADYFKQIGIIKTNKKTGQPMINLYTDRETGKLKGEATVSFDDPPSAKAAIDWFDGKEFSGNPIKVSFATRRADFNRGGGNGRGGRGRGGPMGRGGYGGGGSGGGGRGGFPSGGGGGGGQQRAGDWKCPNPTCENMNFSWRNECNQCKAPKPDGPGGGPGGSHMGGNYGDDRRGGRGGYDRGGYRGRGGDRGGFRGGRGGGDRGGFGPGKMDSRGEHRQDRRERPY
UniProt P05198: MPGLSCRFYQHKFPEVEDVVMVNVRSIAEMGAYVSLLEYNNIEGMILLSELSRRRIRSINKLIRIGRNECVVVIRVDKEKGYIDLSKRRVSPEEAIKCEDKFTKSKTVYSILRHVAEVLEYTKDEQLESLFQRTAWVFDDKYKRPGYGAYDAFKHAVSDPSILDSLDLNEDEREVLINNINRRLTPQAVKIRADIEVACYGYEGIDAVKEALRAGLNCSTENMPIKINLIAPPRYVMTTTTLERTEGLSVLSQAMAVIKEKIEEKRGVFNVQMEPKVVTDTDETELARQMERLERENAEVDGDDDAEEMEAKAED
UniProt Q13283: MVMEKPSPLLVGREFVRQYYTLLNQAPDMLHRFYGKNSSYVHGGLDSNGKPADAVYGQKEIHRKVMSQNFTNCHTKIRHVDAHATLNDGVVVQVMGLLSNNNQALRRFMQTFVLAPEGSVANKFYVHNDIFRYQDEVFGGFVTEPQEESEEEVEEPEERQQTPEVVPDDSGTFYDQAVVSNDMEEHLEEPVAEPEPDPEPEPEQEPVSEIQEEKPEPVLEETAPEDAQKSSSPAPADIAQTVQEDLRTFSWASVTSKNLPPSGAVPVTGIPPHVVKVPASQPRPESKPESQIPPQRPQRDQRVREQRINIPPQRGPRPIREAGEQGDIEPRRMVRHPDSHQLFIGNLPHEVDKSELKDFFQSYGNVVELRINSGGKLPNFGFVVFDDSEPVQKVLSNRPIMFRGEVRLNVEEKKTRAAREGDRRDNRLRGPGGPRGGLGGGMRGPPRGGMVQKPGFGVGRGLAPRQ
UniProt Q01844: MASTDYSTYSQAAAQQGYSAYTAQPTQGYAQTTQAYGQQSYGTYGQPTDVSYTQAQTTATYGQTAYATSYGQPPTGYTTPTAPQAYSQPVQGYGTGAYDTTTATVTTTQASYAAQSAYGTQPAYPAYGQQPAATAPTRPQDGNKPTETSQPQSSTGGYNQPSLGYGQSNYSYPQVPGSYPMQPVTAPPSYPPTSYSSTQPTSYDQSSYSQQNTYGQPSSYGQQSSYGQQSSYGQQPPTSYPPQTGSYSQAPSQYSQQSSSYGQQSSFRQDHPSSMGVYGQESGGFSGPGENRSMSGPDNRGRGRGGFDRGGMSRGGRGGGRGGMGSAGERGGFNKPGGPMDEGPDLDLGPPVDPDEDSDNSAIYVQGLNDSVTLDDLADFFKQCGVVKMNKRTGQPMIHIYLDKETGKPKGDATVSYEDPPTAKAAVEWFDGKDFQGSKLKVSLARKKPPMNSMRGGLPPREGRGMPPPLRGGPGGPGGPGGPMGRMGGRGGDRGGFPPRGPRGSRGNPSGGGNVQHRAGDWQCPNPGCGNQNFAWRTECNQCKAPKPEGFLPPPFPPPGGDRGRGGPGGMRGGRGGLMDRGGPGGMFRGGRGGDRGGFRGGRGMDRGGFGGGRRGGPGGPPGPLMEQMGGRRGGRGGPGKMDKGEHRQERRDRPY

B1: UPF1 (protein, UniProt Q92900 1-1129)
chain: MSVEAYGPSSQTLTFLDTEEAELLGADTQGSEFEFTDFTLPSQTQTPPGGPGGPGGGGAGGPGGAGAGAAAGQLDAQVGPEGILQNGAVDDSVAKTSQLLAELNFEEDEEDTYYTKDLPIHACSYCGIHDPACVVYCNTSKKWFCNGRGNTSGSHIVNHLVRAKCKEVTLHKDGPLGETVLECYNCGCRNVFLLGFIPAKADSVVVLLCRQPCASQSSLKDINWDSSQWQPLIQDRCFLSWLVKIPSEQEQLRARQITAQQINKLEELWKENPSATLEDLEKPGVDEEPQHVLLRYEDAYQYQNIFGPLVKLEADYDKKLKESQTQDNITVRWDLGLNKKRIAYFTLPKTDSGNEDLVIIWLRDMRLMQGDEICLRYKGDLAPLWKGIGHVIKVPDNYGDEIAIELRSSVGAPVEVTHNFQVDFVWKSTSFDRMQSALKTFAVDETSVSGYIYHKLLGHEVEDVIIKCQLPKRFTAQGLPDLNHSQVYAVKTVLQRPLSLIQGPPGTGKTVTSATIVYHLARQGNGPVLVCAPSNIAVDQLTEKIHQTGLKVVRLCAKSREAIDSPVSFLALHNQIRNMDSMPELQKLQQLKDETGELSSADEKRYRALKRTAERELLMNADVICCTCVGAGDPRLAKMQFRSILIDESTQATEPECMVPVVLGAKQLILVGDHCQLGPVVMCKKAAKAGLSQSLFERLVVLGIRPIRLQVQYRMHPALSAFPSNIFYEGSLQNGVTAADRVKKGFDFQWPQPDKPMFFYVTQGQEEIASSGTSYLNRTEAANVEKITTKLLKAGAKPDQIGIITPYEGQRSYLVQYMQFSGSLHTKLYQEVEIASVDAFQGREKDFIILSCVRANEHQGIGFLNDPRRLNVALTRARYGVIIVGNPKALSKQPLWNHLLNYYKEQKVLVEGPLNNLRESLMQFSKPRKLVNTINPGARFMTTAMYDAREAIIPGSVYDRSSQGRPSSMYFQTHDQIGMISAGPSHVAAMNIPIPFNLVMPPMPPPGYFGQANGPAAGRGTPKGKTGRGGRQKNRFGLPGPSQTNLPNSQASQDVASQPFSQGALTQGYISMSQPSQMSQPGLSQPELSQDSYLGDEFKSQIDVALSQDSTYQGERAYQHGGVTGLSQY
B2: MOV10 (protein, UniProt Q9HCE1 1-1003)
chain: MPSKFSCRQLREAGQCFESFLVVRGLDMETDRERLRTIYNRDFKISFGTPAPGFSSMLYGMKIANLAYVTKTRVRFFRLDRWADVRFPEKRRMKLGSDISKHHKSLLAKIFYDRAEYLHGKHGVDVEVQGPHEARDGQLLIRLDLNRKEVLTLRLRNGGTQSVTLTHLFPLCRTPQFAFYNEDQELPCPLGPGECYELHVHCKTSFVGYFPATVLWELLGPGESGSEGAGTFYIARFLAAVAHSPLAAQLKPMTPFKRTRITGNPVVTNRIEEGERPDRAKGYDLELSMALGTYYPPPRLRQLLPMLLQGTSIFTAPKEIAEIKAQLETALKWRNYEVKLRLLLHLEELQMEHDIRHYDLESVPMTWDPVDQNPRLLTLEVPGVTESRPSVLRGDHLFALLSSETHQEDPITYKGFVHKVELDRVKLSFSMSLLSRFVDGLTFKVNFTFNRQPLRVQHRALELTGRWLLWPMLFPVAPRDVPLLPSDVKLKLYDRSLESNPEQLQAMRHIVTGTTRPAPYIIFGPPGTGKTVTLVEAIKQVVKHLPKAHILACAPSNSGADLLCQRLRVHLPSSIYRLLAPSRDIRMVPEDIKPCCNWDAKKGEYVFPAKKKLQEYRVLITTLITAGRLVSAQFPIDHFTHIFIDEAGHCMEPESLVAIAGLMEVKETGDPGGQLVLAGDPRQLGPVLRSPLTQKHGLGYSLLERLLTYNSLYKKGPDGYDPQFITKLLRNYRSHPTILDIPNQLYYEGELQACADVVDRERFCRWAGLPRQGFPIIFHGVMGKDEREGNSPSFFNPEEAATVTSYLKLLLAPSSKKGKARLSPRSVGVISPYRKQVEKIRYCITKLDRELRGLDDIKDLKVGSVEEFQGQERSVILISTVRSSQSFVQLDLDFNLGFLKNPKRFNVAVTRAKALLIIVGNPLLLGHDPDWKVFLEFCKENGGYTGCPFPAKLDLQQGQNLLQGLSKLSPSTSGPHSHDYLPQEREGEGGLSLQVEPEWRNEL

Legend:
[1] = target: GFP-Strep-FUS P525L (human) (UniProt P35637); assay: co-IP; GFP-Twin-Strep-FUS variants transfected in HEK293T; lysate fractionated into cytoplasmic and nuclear fractions kept separate; MagStrep Type3 (Strep-TactinXT) beads overnight at 4 °C, washes in HGN 165 buffer; immunoblot for endogenous proteins (Fig. 4B)
GFP-Strep-FUS WT (human) [2] = target: GFP-Strep-FUS WT (human) (UniProt P35637); assay: as above
[3] = target: GFP-Strep-FUS P525L (human) (UniProt P35637); assay: co-IP; GFP-Twin-Strep-FUS variants transfected in HEK293T; whole-cell lysate (postnuclear supernatant pooled with nuclear lysates, benzonase in the nuclear lysis buffer); MagStrep Type3 (Strep-TactinXT) beads overnight at 4 °C, washes in HGN 165 buffer; immunoblot for endogenous proteins (Fig. 4A)
GFP-Strep-FUS WT (human) [4] = target: GFP-Strep-FUS WT (human) (UniProt P35637); assay: as above

Molecule	binding [1]	binding (GFP-Strep-FUS WT (human) [2])	binding [3]	binding (GFP-Strep-FUS WT (human) [4])
eIF2α (from UniProt P05198 1-315)	binds	binds	–	–
G3BP1 (from UniProt Q13283 1-466)	binds	–	–	–
EWS (from UniProt Q01844 1-656)	–	–	binds	binds
B1	binds	binds	–	–
B2	binds	binds	–	–
